Results on 23 sequences are retold here after publication PMC7819943, “Rice protein-binding microarrays: a tool to detect cis-acting elements near promoter regions in rice”.

Sequences of proteins named here, by UniProt entry; tags and fusion partners are left off.
UniProt Q0JBA9, entry or part of it: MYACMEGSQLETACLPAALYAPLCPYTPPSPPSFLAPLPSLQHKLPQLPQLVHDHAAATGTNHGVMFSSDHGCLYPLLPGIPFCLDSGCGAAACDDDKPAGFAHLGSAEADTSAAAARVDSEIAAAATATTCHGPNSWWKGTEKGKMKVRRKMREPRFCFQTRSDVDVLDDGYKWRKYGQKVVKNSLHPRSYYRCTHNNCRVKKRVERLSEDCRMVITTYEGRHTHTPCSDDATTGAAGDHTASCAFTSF

The other results are listed elsewhere or left out.

In this test the target is OsWRKY34 (Oryza sativa, UniProt Q0JBA9 1-250). In words: protein-binding microarray (RPBM); PBS, 2% BSA, 51.3 ng/ul salmon testes DNA, 50 uM zinc acetate, 200 nM TF, 25 C, 1 h; high values mean tight binding. To be noted: protein: recombinant; tags: N-terminal polyhistidine and DsRed monomer fusion (pET32a); label: CyDye5-dUTP incorporated in the synthesized complementary strand; 3' TTTTT single-stranded linker to array surface; dsDNA, one strand shown. The essentials: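 The binding signal is fluorescence intensity per feature, in arbitrary units, read on an Axon 4000B scanner. Polyhistidine- and DsRed-tagged transcription factors (N-terminal fusions) from E. coli BL21-CodonPlus were purified on Ni–NTA and applied at 200 nM for 1 h at 25 °C to a double-stranded, BSA-blocked custom Agilent array in buffer with 50 µM zinc acetate.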
With “CTCGTGCCGAGCAGCGTGTACGCCTCACTCCGCCTCATCACGGAGTCACCTAGTGCAG”, the binding signal was 8050 fluorescence intensity (a.u.).

On to “TCCGATCGGCTACCACCCGCCGCCACCACCACCACCACAACGGAGTCACCTAGTGCAG”, for which the binding signal is 10500 fluorescence intensity (a.u.).

On to “CGAGCTCCTTCGATTCGATCCACCTCGTCTCGGTTCCTCTCGGAGTCACCTAGTGCAG”, for which the binding signal is 8880 fluorescence intensity (a.u.).

“AGCAATGGCGTCTCTACTCGGACTCCTCTTCTCTTCTCTTCGGAGTCACCTAGTGCAG”: the binding signal is 13000 fluorescence intensity (a.u.).

Regarding “TATTTATTTTTTTGCTGGTTGTTTTGTTTGCTTTTCAATTCGGAGTCACCTAGTGCAG”, the binding signal is 14100 fluorescence intensity (a.u.).

Regarding “CCTGTTTAGTTCATCTGTTCATTTCACATTAAGTTAAATTCGGAGTCACCTAGTGCAG”, the binding signal was 9520 fluorescence intensity (a.u.).

As to “GTTCTTCTCCAACTCACCCTGTTTCTCTCACCAAATGCCCCGGAGTCACCTAGTGCAG”, the binding signal is 8810 fluorescence intensity (a.u.).

Consider “TGTTCGAATTTTTTGCTTCCTTGATTTCTTTTGCGAGCAGCGGAGTCACCTAGTGCAG”, for which the binding signal is 8320 fluorescence intensity (a.u.).

Consider “CCAAGCGCCCGCCGCCTCGCTCCCTCCTCTTCCTTGACCTCGGAGTCACCTAGTGCAG”, for which the binding signal was 35200 fluorescence intensity (a.u.).

Regarding “ACGTGAATTAATACTGCATTATTCCTGCTTGCTTTTTTTTCGGAGTCACCTAGTGCAG”, the binding signal was 10100 fluorescence intensity (a.u.).

Regarding “GGGTTGGGTGCTTACCATGCCGCCGGTGAGGTAGCGGAGGCGGAGTCACCTAGTGCAG”, the binding signal was 8420 fluorescence intensity (a.u.).

Regarding “CCGTTGACTTTTTAACTAATGTTTAACCATTCATTTTATTCGGAGTCACCTAGTGCAG”, the binding signal was 28900 fluorescence intensity (a.u.).

As for “ATCTATGTTTTTCTGCGGGCCGGGTTGGTTTGTTTCCTACCGGAGTCACCTAGTGCAG”, the binding signal was 10300 fluorescence intensity (a.u.).

As for “CCTCGAGCACTCGAGTATCTCCGCCGTCCTTTCCGCGTCACGGAGTCACCTAGTGCAG”, the binding signal is 9660 fluorescence intensity (a.u.).

For the sequence “CCCGATTCTTTGTTGCACTGGTAAGCATATTCATCCAAAACGGAGTCACCTAGTGCAG”, the binding signal was 8440 fluorescence intensity (a.u.).

Turning to “TTTAGTAATCCCAACAGATGCAATTTTTTTTGGTTCGTCCCGGAGTCACCTAGTGCAG”, the binding signal was 8180 fluorescence intensity (a.u.).

As for “TTTGAATGATATATGGATCCCACATTTTTTTCTAGTTTTACGGAGTCACCTAGTGCAG”, the binding signal was 8390 fluorescence intensity (a.u.).

For the sequence “GCTAAAAGAGTTTCCCATATTTCTGCTACCTATTCTTTTCCGGAGTCACCTAGTGCAG”, the binding signal was 8330 fluorescence intensity (a.u.).

As for “ATGCCCGCCGCCGCTCGCCGCTCTCGACCCGGTGCTCCGCCGGAGTCACCTAGTGCAG”, the binding signal was 9630 fluorescence intensity (a.u.).

As to “CCCACTCCACCACCCCACCCCGCATGGCCCGGATCTAATACGGAGTCACCTAGTGCAG”, the binding signal is 8020 fluorescence intensity (a.u.).

For the sequence “ATTCTGATTGGGTGTGGTTGGTTTGATTTTCTGTTAAGCACGGAGTCACCTAGTGCAG”, the binding signal was 11700 fluorescence intensity (a.u.).

Take “TTTTTTTGCTTTCTATCAGTTTATTCGGGGCAGTTCTTTCCGGAGTCACCTAGTGCAG”: the binding signal was 14800 fluorescence intensity (a.u.).

For the sequence “TCACCGCCGTCCGCAGCGATACACCACCGCGATCTCCTCGCGGAGTCACCTAGTGCAG”, the binding signal was 10400 fluorescence intensity (a.u.).
